Reference: PubChem BioAssay AID1508597 (Cure First, 2020)
This is a random part of the about 2,100 reagents, in one setting of the screen. 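Calls flag viability under 80% in either arm, not effects specific to rucaparib; the reference for percent is not stated.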 Some reagents were tested in more than one well and are listed for each. Not stated in the record: the 100% reference.

Test: 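Knock-downs altering ovarian cancer cell survival with or without PARP inhibitor rucaparib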 (primary screen)
System: human ovarian carcinoma lines grown from tumours: OCI-P5x (papillary serous) and OCI-C5x (clear cell)
Reagents: siRNA pool against human genes, 1.25 pmol siRNA per well
Timing: 72 h or 96 h, depending on the cell culture
Treatment: rucaparib 20 µM (about IC30) or vehicle, present until read-out
Rucaparib or vehicle: Vehicle
Cell line: OCI-P5x (serous)
Measurement: 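ATP luminescence measured at 72 or 96 h according to the culture, then normalised and expressed as percent viability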
Reading the numbers: viability, normalised: higher = more viable cells remaining
Call rule: 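Active when normalised viability falls below 80 percent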
Meaning of the calls: active = viability under 80%; inactive = viability 80% or more

gene | technical replicate | viability, normalised (%) | call
MYBL2 (MYB proto-oncogene like 2) | 1 | 51.3 | active
MYBL2 (MYB proto-oncogene like 2) | 2 | 53.6 | active
MYBL2 (MYB proto-oncogene like 2) | 3 | 58.8 | active
EIF2AK1 (eukaryotic translation initiation factor 2 alpha kinase 1) | 1 | 57.8 | active
EIF2AK1 (eukaryotic translation initiation factor 2 alpha kinase 1) | 2 | 66.8 | active
EIF2AK1 (eukaryotic translation initiation factor 2 alpha kinase 1) | 3 | 63.1 | active
ZDHHC2 (zDHHC palmitoyltransferase 2) | 1 | 80.9 | inactive
ZDHHC2 (zDHHC palmitoyltransferase 2) | 2 | 76.2 | active
ZDHHC2 (zDHHC palmitoyltransferase 2) | 3 | 138 | inactive
CAMKV (CaM kinase like vesicle associated) | 1 | 70.2 | active
CAMKV (CaM kinase like vesicle associated) | 2 | 70.5 | active
CAMKV (CaM kinase like vesicle associated) | 3 | 26 | active
MAPK8 (mitogen-activated protein kinase 8) | 1 | 96.9 | inactive
MAPK8 (mitogen-activated protein kinase 8) | 2 | 75.1 | active
MAPK8 (mitogen-activated protein kinase 8) | 3 | 108 | inactive
POLR1C (RNA polymerase I and III subunit C) | 1 | 136 | inactive
POLR1C (RNA polymerase I and III subunit C) | 2 | 120 | inactive
POLR1C (RNA polymerase I and III subunit C) | 3 | 99.6 | inactive
STKLD1 (serine/threonine kinase like domain containing 1) | 1 | 112 | inactive
STKLD1 (serine/threonine kinase like domain containing 1) | 2 | 89.8 | inactive
STKLD1 (serine/threonine kinase like domain containing 1) | 3 | 88.5 | inactive
PRKD2 (protein kinase D2) | 1 | 70.3 | active
PRKD2 (protein kinase D2) | 2 | 74.6 | active
PRKD2 (protein kinase D2) | 3 | 71.8 | active
PRKCE (protein kinase C epsilon) | 1 | 83.5 | inactive
PRKCE (protein kinase C epsilon) | 2 | 80.2 | inactive
PRKCE (protein kinase C epsilon) | 3 | 89.5 | inactive
SIRT6 (sirtuin 6) | 1 | 55.5 | active
SIRT6 (sirtuin 6) | 1 | 105 | inactive
SIRT6 (sirtuin 6) | 2 | 67.6 | active
SIRT6 (sirtuin 6) | 2 | 77.8 | active
SIRT6 (sirtuin 6) | 3 | 85.5 | inactive
SIRT6 (sirtuin 6) | 3 | 78.4 | active
SP110 (SP110 nuclear body protein) | 1 | 66.5 | active
SP110 (SP110 nuclear body protein) | 2 | 55 | active
SP110 (SP110 nuclear body protein) | 3 | 54.9 | active
MBD6 (methyl-CpG binding domain protein 6) | 1 | 72.4 | active
MBD6 (methyl-CpG binding domain protein 6) | 2 | 83.4 | inactive
MBD6 (methyl-CpG binding domain protein 6) | 3 | 89.1 | inactive

Taken from above:
For “viability, normalised (%)”, MYBL2 (MYB proto-oncogene like 2), technical replicate 3 shows 58.8
For “viability, normalised (%)”, ZDHHC2 (zDHHC palmitoyltransferase 2), technical replicate 2 reads 76.2
PRKCE (protein kinase C epsilon), technical replicate 1, call = inactive
